Taken from: PubChem BioAssay AID1259424 (University of Nebraska Medical Center, 2018)
In all, the deposit lists about 14,000 reagents; this is a part drawn at random. 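Higher correlation or smaller distance means closer resemblance to KSR1 loss; control wells, including KSR1 knockdowns, recur on many plates.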 Not all columns of the deposit are shown. The record does not give: the time to read-out.

- Purpose: 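Seek colon cancer survival genes behaving like KSR1, using a six-gene signature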 (primary screen)
- Cell system: human HCT116 colon cancer cells
- Reagent: siRNA pool against human genes, 50 nM
- Read-out: 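Log2 levels of six mRNAs (branched-DNA multiplex), adjusted by two reference genes and the non-targeting median, then scored against the average KSR1 knockdown pattern as Pearson r and euclidean distance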
- Direction: mean correlation with KSR1 profile: higher = expression change more like KSR1 knockdown; mean distance from KSR1 profile: higher = expression change less like KSR1 knockdown

| Gene | mean correlation with KSR1 profile | mean distance from KSR1 profile |
| --- | --- | --- |
| GDF3 | 0.569 | 1.22 |
| TMSB4Y | -0.229 | 1.6 |
| LIG3 | 0.129 | 1.71 |
| CHST10 | 0.739 | 1.71 |
| MYF5 | -0.331 | 2.3 |
| DOK5 | -0.146 | 1.96 |
| TXLNA | 0.023 | 1.34 |
| CHIC2 | -0.211 | 1.65 |
| VIRMA | 0.0426 | 1.6 |
| KLF9 | 0.546 | 4.31 |
| FLNB | -0.336 | 4.73 |
| PPP2R1A | 0.172 | 1.23 |
| CD207 | 0.467 | 2.29 |
| DEPP1 | 0.414 | 2.18 |
| TMEM126B | 0.16 | 2.14 |
| KIF3A | -0.34 | 1.63 |
| ZNF8 | -0.301 | 2.03 |
| AVPR2 | 0.23 | 3.3 |
| MAML3 | -0.0484 | 5.11 |
| PRKACG | -0.151 | 3.17 |

A portion of the results above, for reference:
| Gene | mean correlation with KSR1 profile | mean distance from KSR1 profile |
| --- | --- | --- |
| TXLNA | 0.023 | 1.34 |
| CHIC2 | -0.211 | 1.65 |
